PubChem BioAssay AID1259254, NCATS, 2017
The whole screen tested about 59,000 reagents; this is an unselected part. Of all reagents, about 1,550 (2.6%) were called active. 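G2 share is only a proxy for re-replication; each gene was hit by three separate siRNAs, and active genes were retested.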 Entries without a mark were called inactive. Not all columns of the deposit are shown. No sequences are given here. Not given: the amount of reagent.

Purpose: 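Gene knock-downs that lead to re-replication, shown by excess G2 DNA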 (primary screen)
System: human HCT116 colorectal cancer cells
Knock-down reagent: single siRNA against human genes
Duration: 3 days
Measurement: 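Nuclei stained with Hoechst and imaged; cell-cycle phase assigned by DNA content; G2 share scaled per plate, non-targeting siRNA 0%, GMNN siRNA 100%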
Direction: G2 robust z-score: higher = more G2 cells, more excess DNA replication
Call rule: 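Active siRNAs have a G2 robust z of 5 or more median absolute deviations over the median, which in these data means about 38% or higher of GMNN control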

gene knocked down	PubChem SID	G2 robust z-score
ECH1 (enoyl-CoA hydratase 1)	SID160757842	6.67 (active)
ECH1 (enoyl-CoA hydratase 1)	SID160757853	0.461
ECH1 (enoyl-CoA hydratase 1)	SID160757864	0.00342
PMS1 (PMS1 homolog 1, mismatch repair system component)	SID160714542	-1.44
PMS1 (PMS1 homolog 1, mismatch repair system component)	SID160714543	-0.292
PMS1 (PMS1 homolog 1, mismatch repair system component)	SID160714545	-0.00404
TBC1D5 (TBC1 domain family member 5)	SID160723061	0.321
TBC1D5 (TBC1 domain family member 5)	SID160723062	0.329
TBC1D5 (TBC1 domain family member 5)	SID160723064	1.31
CLC (Charcot-Leyden crystal galectin)	SID160744065	-0.957
CLC (Charcot-Leyden crystal galectin)	SID160744075	0.565
CLC (Charcot-Leyden crystal galectin)	SID160744086	-0.931
TMEM91 (transmembrane protein 91)	SID160768425	0.0887
TMEM91 (transmembrane protein 91)	SID160768426	-0.91
TMEM91 (transmembrane protein 91)	SID160768427	0.197
ALKBH2 (alkB homolog 2, alpha-ketoglutarate dependent dioxygenase)	SID160755930	-0.653
ALKBH2 (alkB homolog 2, alpha-ketoglutarate dependent dioxygenase)	SID160755931	-0.498
ALKBH2 (alkB homolog 2, alpha-ketoglutarate dependent dioxygenase)	SID160755932	-0.875
CWC25 (CWC25 spliceosome associated protein)	SID160733563	-0.968
CWC25 (CWC25 spliceosome associated protein)	SID160742402	0.143
CWC25 (CWC25 spliceosome associated protein)	SID160742404	1.44
LANCL2 (LanC like glutathione S-transferase 2)	SID160744638	-0.968
LANCL2 (LanC like glutathione S-transferase 2)	SID160744639	0.652
LANCL2 (LanC like glutathione S-transferase 2)	SID160744640	1.29
ZNF20 (zinc finger protein 20)	SID160719025	0.239
ZNF20 (zinc finger protein 20)	SID160719026	-0.461
ZNF20 (zinc finger protein 20)	SID160719027	0.466
GPR37 (G protein-coupled receptor 37)	SID160773633	2.33
GPR37 (G protein-coupled receptor 37)	SID160773641	-1.07
GPR37 (G protein-coupled receptor 37)	SID160773652	-0.356
GDAP1L1	SID160734917	-1.06
GDAP1L1	SID160748448	-1.09
GDAP1L1	SID160748449	-0.204
TUBB6 (tubulin beta 6 class V)	SID160752443	-1.14
TUBB6 (tubulin beta 6 class V)	SID160752444	1.03
TUBB6 (tubulin beta 6 class V)	SID160752445	-0.234
ERBB3 (erb-b2 receptor tyrosine kinase 3)	SID160761408	0.646
ERBB3 (erb-b2 receptor tyrosine kinase 3)	SID160761419	5.56 (active)
ERBB3 (erb-b2 receptor tyrosine kinase 3)	SID160761428	-1.09
TRPV4	SID160747000	1.71
TRPV4	SID160747001	4.6
TRPV4	SID160747002	7.58 (active)
AKR1C4 (aldo-keto reductase family 1 member C4)	SID160742607	4.1
AKR1C4 (aldo-keto reductase family 1 member C4)	SID160742618	-0.0681
AKR1C4 (aldo-keto reductase family 1 member C4)	SID160742628	4.36
NPC2 (NPC intracellular cholesterol transporter 2)	SID160728775	-0.169
NPC2 (NPC intracellular cholesterol transporter 2)	SID160728777	0.765
NPC2 (NPC intracellular cholesterol transporter 2)	SID160728778	0.0115
COPS3 (COP9 signalosome subunit 3)	SID160720260	1.08
COPS3 (COP9 signalosome subunit 3)	SID160720261	-0.135
COPS3 (COP9 signalosome subunit 3)	SID160720262	0.131
MCCD1 (mitochondrial coiled-coil domain 1)	SID160733335	-0.262
MCCD1 (mitochondrial coiled-coil domain 1)	SID160767210	-0.0357
MCCD1 (mitochondrial coiled-coil domain 1)	SID160767211	0.268
CTDSP1 (CTD small phosphatase 1)	SID160746794	0.189
CTDSP1 (CTD small phosphatase 1)	SID160746795	4.88
CTDSP1 (CTD small phosphatase 1)	SID160746796	5.46 (active)
DACH2 (dachshund family transcription factor 2)	SID160755527	-0.462
DACH2 (dachshund family transcription factor 2)	SID160755528	-0.101
DACH2 (dachshund family transcription factor 2)	SID160755529	1.18
PTCHD3P1 (patched domain containing 3 pseudogene 1)	SID160765620	-0.215
PTCHD3P1 (patched domain containing 3 pseudogene 1)	SID160765621	-0.952
PTCHD3P1 (patched domain containing 3 pseudogene 1)	SID160765622	-0.93
MRPL11 (mitochondrial ribosomal protein L11)	SID160748198	-1.14
MRPL11 (mitochondrial ribosomal protein L11)	SID160748199	0.639
MRPL11 (mitochondrial ribosomal protein L11)	SID160748201	6 (active)
PLIN2 (perilipin 2)	SID160714365	3.14
PLIN2 (perilipin 2)	SID160714376	-0.733
PLIN2 (perilipin 2)	SID160714387	-0.34
CDCA2 (cell division cycle associated 2)	SID160759513	-0.0873
CDCA2 (cell division cycle associated 2)	SID160759514	-0.46
CDCA2 (cell division cycle associated 2)	SID160759515	-0.403
CFHR5 (complement factor H related 5)	SID160750752	-0.607
CFHR5 (complement factor H related 5)	SID160750753	-0.0499
CFHR5 (complement factor H related 5)	SID160750754	-0.65
ARL16 (ARF like GTPase 16)	SID160733079	-1.12
ARL16 (ARF like GTPase 16)	SID160764181	-1.2
ARL16 (ARF like GTPase 16)	SID160764182	0.595
TNNI3K (TNNI3 interacting kinase)	SID160740011	0.78
TNNI3K (TNNI3 interacting kinase)	SID160740013	-1.03
TNNI3K (TNNI3 interacting kinase)	SID160740014	-0.431
GDAP1 (ganglioside induced differentiation associated protein 1)	SID160741631	-0.388
GDAP1 (ganglioside induced differentiation associated protein 1)	SID160741632	-0.081
GDAP1 (ganglioside induced differentiation associated protein 1)	SID160741633	0.512
CASP8 (caspase 8)	SID160736731	1.53
CASP8 (caspase 8)	SID160736742	2.52
CASP8 (caspase 8)	SID160736752	-0.594

Sorted by “G2 robust z-score” (high to low): some entries from above
gene knocked down	PubChem SID	G2 robust z-score
TBC1D5 (TBC1 domain family member 5)	SID160723064	1.31
CLC (Charcot-Leyden crystal galectin)	SID160744075	0.565
TBC1D5 (TBC1 domain family member 5)	SID160723062	0.329
TBC1D5 (TBC1 domain family member 5)	SID160723061	0.321
TMEM91 (transmembrane protein 91)	SID160768427	0.197
TMEM91 (transmembrane protein 91)	SID160768425	0.0887
PMS1 (PMS1 homolog 1, mismatch repair system component)	SID160714545	-0.00404
PMS1 (PMS1 homolog 1, mismatch repair system component)	SID160714543	-0.292
ALKBH2 (alkB homolog 2, alpha-ketoglutarate dependent dioxygenase)	SID160755930	-0.653
TMEM91 (transmembrane protein 91)	SID160768426	-0.91
CLC (Charcot-Leyden crystal galectin)	SID160744086	-0.931
CLC (Charcot-Leyden crystal galectin)	SID160744065	-0.957
